Values from PubChem BioAssay AID1508597 (Cure First, 2020)
Shown is a random part of the about 2,100 reagents, under one of the conditions tested. 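Calls flag viability under 80% in either arm, not effects specific to rucaparib; the reference for percent is not stated.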 A number with no mark means an inactive call. A reagent listed more than once was tested more than once; the source does not tell the runs apart. Not given: the 100% reference.

- Purpose: 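Survival screen with siRNA in ovarian cancer cells derived from patients, with or without rucaparib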 (primary screen)
- Cell system: human ovarian carcinoma lines grown from tumours: OCI-P5x (papillary serous) and OCI-C5x (clear cell)
- Reagent: siRNA pool against human genes, 1.25 pmol siRNA per well
- Timing: 72 h or 96 h, depending on the cell culture
- Treatment: rucaparib 20 µM (about IC30) or vehicle, present until read-out
- Rucaparib or vehicle: Rucaparib
- Cell line: OCI-C5x (clear cell)
- Measurement: 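ATP luminescence measured at 72 or 96 h according to the culture, then normalised and expressed as percent viability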
- Direction: viability, normalised: higher = more viable cells remaining
- Active means: 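Active when normalised viability falls below 80 percent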
- Calls: active = viability under 80%; inactive = viability 80% or more

gene | technical replicate | viability, normalised (%)
ADGRA3 | 1 | 52.3 (active)
ADGRA3 | 2 | 53.6 (active)
ADGRA3 | 3 | 43.2 (active)
NUAK2 | 1 | 41.2 (active)
NUAK2 | 2 | 44.9 (active)
NUAK2 | 3 | 50.4 (active)
APEX1 | 1 | 52.7 (active)
APEX1 | 1 | 52.4 (active)
APEX1 | 2 | 46 (active)
APEX1 | 2 | 57.2 (active)
APEX1 | 3 | 48.4 (active)
APEX1 | 3 | 55.8 (active)
PRKCD | 1 | 43.8 (active)
PRKCD | 2 | 66.1 (active)
PRKCD | 3 | 51.8 (active)
CDK2 | 1 | 50.4 (active)
CDK2 | 1 | 57.3 (active)
CDK2 | 2 | 41.1 (active)
CDK2 | 2 | 63.2 (active)
CDK2 | 3 | 51.7 (active)
CDK2 | 3 | 51.3 (active)
DYRK4 | 1 | 63.5 (active)
DYRK4 | 2 | 62.6 (active)
DYRK4 | 3 | 54.8 (active)
SET | 1 | 46.9 (active)
SET | 2 | 46.4 (active)
SET | 3 | 53.3 (active)
BRWD1 | 1 | 56.1 (active)
BRWD1 | 2 | 47.4 (active)
BRWD1 | 3 | 37 (active)
PFKL | 1 | 70.4 (active)
PFKL | 2 | 53.9 (active)
PFKL | 3 | 54.8 (active)
DCLRE1B | 1 | 50.3 (active)
DCLRE1B | 2 | 34.9 (active)
DCLRE1B | 3 | 42.2 (active)
PDE4C | 1 | 59.2 (active)
PDE4C | 2 | 52.4 (active)
PDE4C | 3 | 54.2 (active)
RALB | 1 | 69.9 (active)
RALB | 2 | 69 (active)
RALB | 3 | 57.4 (active)
BRD10 | 1 | 23.3 (active)
BRD10 | 2 | 24.6 (active)
BRD10 | 3 | 24.3 (active)
BID | 1 | 89.7
BID | 2 | 38.5 (active)
BID | 3 | 30 (active)
CHD4 | 1 | 48.2 (active)
CHD4 | 2 | 40.9 (active)
CHD4 | 3 | 44.5 (active)
CBX6 | 1 | 65.6 (active)
CBX6 | 2 | 29.5 (active)
CBX6 | 3 | 55.5 (active)
EIF4A1 | 1 | 38.1 (active)
EIF4A1 | 2 | 42.2 (active)
EIF4A1 | 3 | 46.9 (active)
